# Assay results reported in publication PMC9935546.
# Amino acid sequences for entries named in this document (tags omitted).
# UniProt P19474: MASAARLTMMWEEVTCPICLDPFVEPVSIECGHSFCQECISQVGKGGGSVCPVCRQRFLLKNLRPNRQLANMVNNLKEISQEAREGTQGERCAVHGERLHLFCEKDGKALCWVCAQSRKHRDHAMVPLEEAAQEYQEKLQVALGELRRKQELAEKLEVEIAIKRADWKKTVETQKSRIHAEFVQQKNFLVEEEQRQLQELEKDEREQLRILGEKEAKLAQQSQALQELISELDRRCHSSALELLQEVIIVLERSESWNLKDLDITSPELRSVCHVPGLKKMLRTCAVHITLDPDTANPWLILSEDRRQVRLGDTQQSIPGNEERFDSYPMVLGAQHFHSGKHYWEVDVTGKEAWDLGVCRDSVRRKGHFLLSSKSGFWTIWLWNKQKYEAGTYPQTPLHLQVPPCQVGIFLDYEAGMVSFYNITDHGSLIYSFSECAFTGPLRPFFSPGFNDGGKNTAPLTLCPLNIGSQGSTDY
# UniProt Q07812: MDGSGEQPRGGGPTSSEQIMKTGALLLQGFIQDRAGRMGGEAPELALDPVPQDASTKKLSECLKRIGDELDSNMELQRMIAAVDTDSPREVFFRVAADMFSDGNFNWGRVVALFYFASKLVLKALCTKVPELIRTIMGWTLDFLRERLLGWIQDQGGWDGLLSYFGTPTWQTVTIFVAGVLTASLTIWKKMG
# Results are given in words; binding and its absence hold for the method and conditions named. In cells and extracts the contact can be indirect. Some entries that bind do so weakly or less than the wild type. For some assays here: Tags and fused reporters may be left off the sequences shown.
# Tests used:
# [1] = molecular target: TRIM21 (construct not told; tests with IFI16, BAX, VDAC1 and VDAC3) (UniProt P19474); experiment: co-IP; TRIM21 and BAX; cells and antibodies not stated (Supplementary Fig. 3a)
# [2] = molecular target: T1, HA-tagged VDAC2 (voltage-dependent anion-selective channel protein 2) (UniProt P45880); experiment: co-IP; HEK293T cells with exogenous TRIM21 and VDAC2; lysates precipitated with anti-FLAG or anti-HA antibody overnight at 4 °C, protein A/G magnetic beads, Western blot
# T1 sequence: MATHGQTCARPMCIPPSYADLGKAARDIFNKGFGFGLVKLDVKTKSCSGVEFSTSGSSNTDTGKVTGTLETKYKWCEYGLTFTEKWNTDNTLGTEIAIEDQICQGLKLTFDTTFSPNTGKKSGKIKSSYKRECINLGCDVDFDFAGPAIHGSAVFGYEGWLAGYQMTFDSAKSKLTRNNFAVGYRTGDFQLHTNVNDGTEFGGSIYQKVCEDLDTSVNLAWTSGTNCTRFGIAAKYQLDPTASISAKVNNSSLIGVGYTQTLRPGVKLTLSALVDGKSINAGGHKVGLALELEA
Substance,binding [1],binding [2]
BAX (from UniProt Q07812 1-192),no binding,–
FLAG-tagged full-length TRIM21 (tripartite motif-containing 21) (from UniProt P19474 1-475),–,binds
